Source: the supplement of paper PMC10849652
This is one part of the list.

Protein sequences, listed by entry. Tags and fused reporters are not part of them. Lines headed by an entry give the natural chain unless they say otherwise; changes in a name come on top.
UniProt Q9Y2Z0: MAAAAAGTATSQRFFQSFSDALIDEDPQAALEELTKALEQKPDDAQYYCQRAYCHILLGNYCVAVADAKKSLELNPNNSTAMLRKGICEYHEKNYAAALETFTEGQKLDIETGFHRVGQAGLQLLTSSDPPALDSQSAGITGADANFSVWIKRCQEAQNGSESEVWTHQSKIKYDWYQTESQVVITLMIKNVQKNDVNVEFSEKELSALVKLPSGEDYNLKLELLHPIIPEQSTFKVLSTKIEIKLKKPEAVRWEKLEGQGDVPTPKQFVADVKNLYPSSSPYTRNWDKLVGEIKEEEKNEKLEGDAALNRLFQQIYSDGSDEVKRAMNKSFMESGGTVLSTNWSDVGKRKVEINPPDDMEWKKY
UniProt Q8TCJ2: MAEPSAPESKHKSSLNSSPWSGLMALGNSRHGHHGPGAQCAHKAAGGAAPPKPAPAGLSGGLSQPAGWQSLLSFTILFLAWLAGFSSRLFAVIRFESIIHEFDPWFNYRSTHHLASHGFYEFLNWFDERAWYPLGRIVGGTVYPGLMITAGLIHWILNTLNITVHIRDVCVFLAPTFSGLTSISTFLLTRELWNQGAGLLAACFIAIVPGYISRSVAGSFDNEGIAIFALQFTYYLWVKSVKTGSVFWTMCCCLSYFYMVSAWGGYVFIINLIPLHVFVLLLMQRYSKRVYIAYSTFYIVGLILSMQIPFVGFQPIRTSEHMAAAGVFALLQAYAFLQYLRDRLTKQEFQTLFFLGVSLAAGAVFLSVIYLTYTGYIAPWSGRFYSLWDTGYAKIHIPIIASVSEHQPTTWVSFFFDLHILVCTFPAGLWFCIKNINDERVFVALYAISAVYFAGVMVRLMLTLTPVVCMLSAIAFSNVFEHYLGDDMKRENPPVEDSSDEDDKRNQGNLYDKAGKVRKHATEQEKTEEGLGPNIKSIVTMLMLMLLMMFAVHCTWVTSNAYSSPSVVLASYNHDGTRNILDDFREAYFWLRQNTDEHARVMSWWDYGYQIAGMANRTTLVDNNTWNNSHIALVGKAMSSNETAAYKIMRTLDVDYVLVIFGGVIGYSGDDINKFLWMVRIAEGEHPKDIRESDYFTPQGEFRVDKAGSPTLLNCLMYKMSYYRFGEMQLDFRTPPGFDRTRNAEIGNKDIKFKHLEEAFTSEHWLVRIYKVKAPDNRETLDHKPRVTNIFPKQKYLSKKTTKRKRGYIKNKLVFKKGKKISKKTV
UniProt Q8IWZ8: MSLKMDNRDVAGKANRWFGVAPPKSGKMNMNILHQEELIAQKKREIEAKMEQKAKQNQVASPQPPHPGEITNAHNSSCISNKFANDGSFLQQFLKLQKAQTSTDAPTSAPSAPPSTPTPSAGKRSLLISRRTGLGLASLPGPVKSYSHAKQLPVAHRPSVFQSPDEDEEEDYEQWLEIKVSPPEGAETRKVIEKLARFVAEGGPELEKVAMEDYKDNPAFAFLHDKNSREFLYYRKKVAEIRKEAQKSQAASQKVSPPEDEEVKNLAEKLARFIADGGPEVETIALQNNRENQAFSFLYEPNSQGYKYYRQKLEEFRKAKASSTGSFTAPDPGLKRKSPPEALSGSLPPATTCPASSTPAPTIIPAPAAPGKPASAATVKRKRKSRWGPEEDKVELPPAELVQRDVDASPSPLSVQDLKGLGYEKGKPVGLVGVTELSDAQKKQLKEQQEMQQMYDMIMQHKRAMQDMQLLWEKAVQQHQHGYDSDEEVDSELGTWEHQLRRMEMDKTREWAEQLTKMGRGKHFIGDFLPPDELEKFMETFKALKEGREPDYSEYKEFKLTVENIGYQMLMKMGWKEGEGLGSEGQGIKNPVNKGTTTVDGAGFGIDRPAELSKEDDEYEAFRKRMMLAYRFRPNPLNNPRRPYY
UniProt P51687: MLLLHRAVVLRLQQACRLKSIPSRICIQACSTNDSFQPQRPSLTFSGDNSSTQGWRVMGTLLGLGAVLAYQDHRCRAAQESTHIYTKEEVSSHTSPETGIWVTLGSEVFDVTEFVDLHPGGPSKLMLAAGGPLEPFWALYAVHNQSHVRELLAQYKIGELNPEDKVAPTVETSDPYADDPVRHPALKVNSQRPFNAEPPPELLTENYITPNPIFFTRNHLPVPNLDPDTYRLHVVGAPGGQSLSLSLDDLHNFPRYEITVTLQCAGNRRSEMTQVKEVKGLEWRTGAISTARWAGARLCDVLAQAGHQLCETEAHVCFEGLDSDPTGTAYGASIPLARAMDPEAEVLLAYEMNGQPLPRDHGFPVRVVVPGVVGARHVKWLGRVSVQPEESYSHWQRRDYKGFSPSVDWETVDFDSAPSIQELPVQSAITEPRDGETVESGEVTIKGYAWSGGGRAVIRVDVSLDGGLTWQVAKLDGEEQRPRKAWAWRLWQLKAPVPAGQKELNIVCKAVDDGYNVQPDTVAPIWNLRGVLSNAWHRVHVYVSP
UniProt Q15526: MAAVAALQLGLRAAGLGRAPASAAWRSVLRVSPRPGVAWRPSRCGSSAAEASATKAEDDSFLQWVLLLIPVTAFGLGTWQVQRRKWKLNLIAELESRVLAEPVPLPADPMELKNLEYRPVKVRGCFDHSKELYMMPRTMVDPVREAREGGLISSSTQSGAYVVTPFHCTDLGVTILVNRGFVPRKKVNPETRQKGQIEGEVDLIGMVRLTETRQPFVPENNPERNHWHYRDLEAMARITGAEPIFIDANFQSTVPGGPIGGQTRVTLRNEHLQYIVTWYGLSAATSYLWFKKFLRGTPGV
UniProt P63165, whole entry, looked up: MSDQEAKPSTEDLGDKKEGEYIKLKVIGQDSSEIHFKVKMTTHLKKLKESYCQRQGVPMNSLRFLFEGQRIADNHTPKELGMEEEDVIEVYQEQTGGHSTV
UniProt Q15022: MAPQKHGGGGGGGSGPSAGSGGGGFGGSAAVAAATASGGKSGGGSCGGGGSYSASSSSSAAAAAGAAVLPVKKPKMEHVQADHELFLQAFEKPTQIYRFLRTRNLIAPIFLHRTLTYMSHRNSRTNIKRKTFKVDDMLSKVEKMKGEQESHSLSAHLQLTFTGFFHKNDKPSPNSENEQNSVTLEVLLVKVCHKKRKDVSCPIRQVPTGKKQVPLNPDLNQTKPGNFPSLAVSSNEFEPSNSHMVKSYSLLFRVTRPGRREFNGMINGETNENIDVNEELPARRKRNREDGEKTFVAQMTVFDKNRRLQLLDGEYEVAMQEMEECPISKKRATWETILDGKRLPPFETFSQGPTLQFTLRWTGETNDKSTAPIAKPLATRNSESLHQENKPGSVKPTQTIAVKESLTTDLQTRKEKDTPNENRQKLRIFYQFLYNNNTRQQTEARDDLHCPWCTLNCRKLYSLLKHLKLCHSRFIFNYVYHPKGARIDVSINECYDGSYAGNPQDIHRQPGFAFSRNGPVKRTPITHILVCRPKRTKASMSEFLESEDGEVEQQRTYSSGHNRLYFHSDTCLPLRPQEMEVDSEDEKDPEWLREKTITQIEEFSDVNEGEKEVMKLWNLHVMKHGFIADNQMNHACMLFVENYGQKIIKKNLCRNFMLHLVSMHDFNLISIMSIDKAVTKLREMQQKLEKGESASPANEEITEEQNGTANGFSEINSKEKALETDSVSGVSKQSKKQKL
UniProt Q13586, whole entry, looked up: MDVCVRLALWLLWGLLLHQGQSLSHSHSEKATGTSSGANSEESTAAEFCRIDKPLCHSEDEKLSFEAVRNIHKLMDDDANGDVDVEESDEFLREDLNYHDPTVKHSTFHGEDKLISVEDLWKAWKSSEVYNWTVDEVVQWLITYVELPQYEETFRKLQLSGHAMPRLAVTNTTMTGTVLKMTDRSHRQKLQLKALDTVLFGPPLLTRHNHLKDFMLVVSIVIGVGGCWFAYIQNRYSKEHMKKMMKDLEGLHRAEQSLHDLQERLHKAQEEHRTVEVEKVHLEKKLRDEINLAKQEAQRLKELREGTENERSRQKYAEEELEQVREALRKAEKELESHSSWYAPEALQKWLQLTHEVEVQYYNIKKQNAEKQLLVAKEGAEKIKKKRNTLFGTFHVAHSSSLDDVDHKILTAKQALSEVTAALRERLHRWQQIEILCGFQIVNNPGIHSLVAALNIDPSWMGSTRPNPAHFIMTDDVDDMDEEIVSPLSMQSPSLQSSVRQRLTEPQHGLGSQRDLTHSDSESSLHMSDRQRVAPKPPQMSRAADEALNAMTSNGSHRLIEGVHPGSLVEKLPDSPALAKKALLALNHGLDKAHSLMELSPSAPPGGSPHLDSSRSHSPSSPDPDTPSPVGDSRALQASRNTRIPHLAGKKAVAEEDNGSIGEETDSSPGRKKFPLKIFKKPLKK
UniProt Q9UH99: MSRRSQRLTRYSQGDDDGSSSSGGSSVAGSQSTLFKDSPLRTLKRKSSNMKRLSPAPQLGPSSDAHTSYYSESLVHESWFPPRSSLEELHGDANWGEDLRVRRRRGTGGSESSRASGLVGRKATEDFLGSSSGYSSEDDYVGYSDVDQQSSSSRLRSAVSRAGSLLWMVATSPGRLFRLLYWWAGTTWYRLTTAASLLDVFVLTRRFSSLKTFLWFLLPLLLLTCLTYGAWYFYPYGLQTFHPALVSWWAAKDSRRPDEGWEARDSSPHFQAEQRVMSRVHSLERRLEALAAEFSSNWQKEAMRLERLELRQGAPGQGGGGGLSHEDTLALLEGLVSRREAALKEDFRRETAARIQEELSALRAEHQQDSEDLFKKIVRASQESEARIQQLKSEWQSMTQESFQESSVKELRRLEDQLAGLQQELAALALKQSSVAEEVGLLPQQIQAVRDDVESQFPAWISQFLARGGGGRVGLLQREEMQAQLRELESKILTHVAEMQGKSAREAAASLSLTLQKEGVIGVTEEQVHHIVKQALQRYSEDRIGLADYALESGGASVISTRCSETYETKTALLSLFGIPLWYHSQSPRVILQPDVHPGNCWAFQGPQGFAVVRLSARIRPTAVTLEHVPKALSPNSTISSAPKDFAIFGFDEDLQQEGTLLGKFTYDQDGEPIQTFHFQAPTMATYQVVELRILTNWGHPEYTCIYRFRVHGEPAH
UniProt O75528: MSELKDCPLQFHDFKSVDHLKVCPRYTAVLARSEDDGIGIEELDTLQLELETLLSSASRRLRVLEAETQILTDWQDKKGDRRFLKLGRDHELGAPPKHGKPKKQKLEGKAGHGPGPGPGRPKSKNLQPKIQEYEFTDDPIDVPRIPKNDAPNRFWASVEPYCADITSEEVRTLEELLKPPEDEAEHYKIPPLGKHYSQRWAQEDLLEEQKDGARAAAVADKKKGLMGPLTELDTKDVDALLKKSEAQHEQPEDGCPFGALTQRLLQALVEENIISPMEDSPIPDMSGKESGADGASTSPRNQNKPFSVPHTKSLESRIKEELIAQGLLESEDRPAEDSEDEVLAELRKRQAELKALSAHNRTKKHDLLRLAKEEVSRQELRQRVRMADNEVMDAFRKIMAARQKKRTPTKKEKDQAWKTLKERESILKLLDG
UniProt Q6P1X5, whole entry, looked up: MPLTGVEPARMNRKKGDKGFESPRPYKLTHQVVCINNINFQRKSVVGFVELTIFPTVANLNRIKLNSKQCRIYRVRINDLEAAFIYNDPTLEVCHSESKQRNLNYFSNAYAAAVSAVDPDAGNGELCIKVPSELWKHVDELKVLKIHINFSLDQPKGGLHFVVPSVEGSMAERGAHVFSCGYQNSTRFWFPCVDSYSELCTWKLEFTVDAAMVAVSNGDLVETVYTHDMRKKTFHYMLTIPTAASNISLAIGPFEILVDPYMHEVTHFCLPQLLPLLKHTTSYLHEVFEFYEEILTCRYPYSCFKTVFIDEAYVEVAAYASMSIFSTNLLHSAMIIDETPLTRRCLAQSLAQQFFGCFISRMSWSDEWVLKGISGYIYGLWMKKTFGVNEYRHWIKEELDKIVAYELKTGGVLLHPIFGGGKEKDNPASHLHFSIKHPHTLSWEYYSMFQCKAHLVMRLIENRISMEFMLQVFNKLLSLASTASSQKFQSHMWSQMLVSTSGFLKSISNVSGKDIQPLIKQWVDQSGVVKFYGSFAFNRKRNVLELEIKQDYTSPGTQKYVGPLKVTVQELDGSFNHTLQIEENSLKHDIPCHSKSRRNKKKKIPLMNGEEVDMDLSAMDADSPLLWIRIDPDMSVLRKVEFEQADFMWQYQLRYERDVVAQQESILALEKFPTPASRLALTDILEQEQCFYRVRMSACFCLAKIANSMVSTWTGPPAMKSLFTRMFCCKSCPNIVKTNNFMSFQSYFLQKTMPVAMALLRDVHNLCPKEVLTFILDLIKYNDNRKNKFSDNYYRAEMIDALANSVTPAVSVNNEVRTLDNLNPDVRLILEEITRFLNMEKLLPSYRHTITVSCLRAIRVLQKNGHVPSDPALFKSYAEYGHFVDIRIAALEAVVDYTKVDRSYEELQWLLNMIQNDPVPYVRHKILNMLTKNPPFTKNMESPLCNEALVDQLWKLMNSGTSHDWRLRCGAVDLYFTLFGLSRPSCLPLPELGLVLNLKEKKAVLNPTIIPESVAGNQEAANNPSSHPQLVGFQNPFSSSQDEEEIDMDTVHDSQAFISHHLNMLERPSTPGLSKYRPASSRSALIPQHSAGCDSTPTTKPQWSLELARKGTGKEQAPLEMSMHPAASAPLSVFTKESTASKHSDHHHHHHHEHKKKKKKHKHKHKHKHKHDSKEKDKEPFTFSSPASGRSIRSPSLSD

Assays:
Test in all cases: log2 fold change, soluble protein after heating vs DMSO (PISA); higher = thermal stabilisation; K562 lysate, 10 uM; active = over 0.2 and 3.5 SD of the protein, either way, in both replicates (recomputed)
[1] = compound: C1=CC=C(C=C1)[C@H](COC2=CC3=C(C=C2)NC(=O)N3)NC(=O)C4=CC=CN(C4=O)CC5=CC(=C(C=C5)F)F
Summary of the method: (§1)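 K562 pellets were dounce-homogenised in PBS pH 7.4 containing 1 mM MgCl2, and the crude extract, at 1 mg/mL protein, was exposed to 10 μM compound for 30 min. Aliquots were heated for 3 min across 48°C-58°C, pooled, brought to 0.5% NP-40 at 4°C and spun at 21,000xg for 90 min, with the supernatant taken as soluble protein. TMTpro 16plex LC-MS/MS with equalised channel sums quantified that protein. Values are log-two fold changes in thermal stability relative to solvent controls, taken from duplicates.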

[2] = compound: CC1=C(SC2=C1C(=N[C@H](C3=NN=C(N32)C)CC(=O)N)C4=CC=C(C=C4)Cl)C
Summary of the method: as §1

[3] = compound: CC1=C2C(=CC=C1)N=C(N(C2=O)C3=CC=CC=C3C)CN4C=NC5=C(N=CN=C54)N
Summary of the method: as §1

[4] = compound: Cc1sc2c(c1C)C(c1ccc(Cl)cc1)=N[C@@H](CC(=O)OC(C)(C)C)c1nnc(C)n1-2
Summary of the method: as §1

[5] = compound: c1ccc([C@@H]2C[C@H]2NC2CCNCC2)cc1
Summary of the method: as §1

Measured: log2 fold change

SUGT1 isoform 2 (UniProt Q9Y2Z0)
inactive: [1] 0.202 | [2] -0.068 | [3] 0.042 | [4] -0.034

STT3B (UniProt Q8TCJ2)
inactive: [1] 0.042 | [2] -0.087 | [3] -0.021 | [4] -0.068 | [5] -0.119

SUGP1 (UniProt Q8IWZ8)
inactive: [1] 0.043 | [2] -0.041 | [3] 0.014 | [4] -0.011 | [5] -0.001

SUPT20H isoform 3 (UniProt Q8NEM7)
inactive: [1] -0.111 | [2] 0.031 | [3] 0.008 | [4] -0.145

2 consecutive records already listed, for reference:
STT3B (UniProt Q8TCJ2)
inactive: [1] 0.042 | [2] -0.087 | [3] -0.021 | [4] -0.068 | [5] -0.119

SUGP1 (UniProt Q8IWZ8)
inactive: [1] 0.043 | [2] -0.041 | [3] 0.014 | [4] -0.011 | [5] -0.001

The listing continues:

SUOX (UniProt P51687)
inactive: [1] 0.037 | [2] 0.016 | [3] -0.012 | [4] -0.028 | [5] -0.025

SURF1 (UniProt Q15526)
inactive: [1] -0.036 | [2] 0.043 | [3] 0.026 | [4] -0.071 | [5] -0.01

SUMO1 (UniProt P63165)
inactive: [1] 0.018 | [2] 0.008 | [3] 0.023 | [4] 0.017 | [5] -0.003

SUZ12 (UniProt Q15022)
inactive: [1] -0.011 | [2] 0.042 | [3] -0.008 | [4] -0.047 | [5] -0.039

STIM1 (UniProt Q13586)
inactive: [1] -0.048 | [2] -0.008 | [3] 0.049 | [4] 0.028 | [5] 0.048

SUN2 isoform 2 (UniProt Q9UH99)
inactive: [1] 0.072 | [2] 0.159 | [3] 0.136 | [4] 0.082 | [5] 0.102

TADA3 (UniProt O75528)
inactive: [1] 0.043 | [2] 0 | [3] 0.087 | [4] -0.015 | [5] -0.098

TAF2 (UniProt Q6P1X5)
inactive: [1] -0.104 | [2] 0.006 | [3] -0.06 | [4] 0.068 | [5] 0.035
